No constants are given. Whether binding was seen depends on the method and setting. Some entries that bind do so weakly or less than the wild type.

Amino acid sequences for entries named in this document (tags omitted). A change or cut given only in a name is not applied to a line headed by its entry.
UniProt P13612: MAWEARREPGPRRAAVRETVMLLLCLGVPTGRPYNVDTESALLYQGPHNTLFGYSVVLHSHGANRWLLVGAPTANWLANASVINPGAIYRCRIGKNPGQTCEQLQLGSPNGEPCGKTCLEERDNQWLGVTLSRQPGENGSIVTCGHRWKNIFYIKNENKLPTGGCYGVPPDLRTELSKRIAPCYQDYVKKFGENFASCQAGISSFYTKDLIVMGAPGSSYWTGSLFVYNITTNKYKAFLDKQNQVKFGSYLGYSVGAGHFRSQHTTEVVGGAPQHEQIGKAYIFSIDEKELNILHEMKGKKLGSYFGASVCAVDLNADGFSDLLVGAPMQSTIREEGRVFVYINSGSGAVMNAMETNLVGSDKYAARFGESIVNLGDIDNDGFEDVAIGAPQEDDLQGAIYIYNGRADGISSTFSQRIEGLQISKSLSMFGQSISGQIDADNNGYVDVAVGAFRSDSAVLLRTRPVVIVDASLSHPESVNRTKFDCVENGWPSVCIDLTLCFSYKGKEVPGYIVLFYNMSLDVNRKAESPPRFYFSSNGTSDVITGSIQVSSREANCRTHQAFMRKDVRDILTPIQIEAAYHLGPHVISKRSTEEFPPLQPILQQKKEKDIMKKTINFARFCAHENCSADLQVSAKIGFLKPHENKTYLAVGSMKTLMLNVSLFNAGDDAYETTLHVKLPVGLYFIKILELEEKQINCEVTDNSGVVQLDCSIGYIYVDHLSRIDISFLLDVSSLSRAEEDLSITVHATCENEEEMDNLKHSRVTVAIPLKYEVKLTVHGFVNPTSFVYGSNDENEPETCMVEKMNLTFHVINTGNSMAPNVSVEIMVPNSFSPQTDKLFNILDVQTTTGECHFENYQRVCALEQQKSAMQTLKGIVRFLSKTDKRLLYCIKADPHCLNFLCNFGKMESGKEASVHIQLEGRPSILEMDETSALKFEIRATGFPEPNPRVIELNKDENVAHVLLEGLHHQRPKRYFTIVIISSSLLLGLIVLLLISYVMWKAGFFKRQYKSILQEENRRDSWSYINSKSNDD

In the experiment the target is α4β1 (VLA-4) as used in the competition ELISAs (UniProt P13612). The experiment in a line: competition ELISA (Table 2). (ELISA stands for enzyme-linked immunosorbent assay.)

B1: H1L2 (antibody, V domains shown)
VH: EVQLVQSGAEVKKPGATVKISCKASGFNIKDTYMHWVQQAPGKGLEWMGRIDPASGDTKYDPKFQVRVTITADTSTDTAYMELSSLRSEDTAVYYCADGMWVSTGYALDFWGQGTLVTVSS
VL: SIVMTQSPDSLAVSLGERATINCKASQSVTNDVAWYQQKPGQPPKLLIYYASNRYTGVPDRFSGSGYGTDFTLTISSLQAEDVAVYFCQQDYSSPYTFGQGTKVEIK
Take B1: the binding entry was “binds”.

B2: H1L3 (antibody, V domains shown)
VH: EVQLVQSGAEVKKPGATVKISCKASGFNIKDTYMHWVQQAPGKGLEWMGRIDPASGDTKYDPKFQVRVTITADTSTDTAYMELSSLRSEDTAVYYCADGMWVSTGYALDFWGQGTLVTVSS
VL: SIVMTQSPDSLAVSLGERATINCKASQSVTNDVAWYQQKPGQPPKLLIYYASNRYTGVPDRFSGSGYGTDFTFTISSLQAEDVATYFCQQDYSSPYTFGQGTKVEIK
Turning to B2, the binding entry is “binds”.
